Assay results taken from PMC9203792.
Results are given in words; binding and its absence hold for the method and conditions named. In cells and extracts the contact can be indirect.

Target: T1, MFN1, ectopically expressed (UniProt Q8IWA4)
T1 sequence: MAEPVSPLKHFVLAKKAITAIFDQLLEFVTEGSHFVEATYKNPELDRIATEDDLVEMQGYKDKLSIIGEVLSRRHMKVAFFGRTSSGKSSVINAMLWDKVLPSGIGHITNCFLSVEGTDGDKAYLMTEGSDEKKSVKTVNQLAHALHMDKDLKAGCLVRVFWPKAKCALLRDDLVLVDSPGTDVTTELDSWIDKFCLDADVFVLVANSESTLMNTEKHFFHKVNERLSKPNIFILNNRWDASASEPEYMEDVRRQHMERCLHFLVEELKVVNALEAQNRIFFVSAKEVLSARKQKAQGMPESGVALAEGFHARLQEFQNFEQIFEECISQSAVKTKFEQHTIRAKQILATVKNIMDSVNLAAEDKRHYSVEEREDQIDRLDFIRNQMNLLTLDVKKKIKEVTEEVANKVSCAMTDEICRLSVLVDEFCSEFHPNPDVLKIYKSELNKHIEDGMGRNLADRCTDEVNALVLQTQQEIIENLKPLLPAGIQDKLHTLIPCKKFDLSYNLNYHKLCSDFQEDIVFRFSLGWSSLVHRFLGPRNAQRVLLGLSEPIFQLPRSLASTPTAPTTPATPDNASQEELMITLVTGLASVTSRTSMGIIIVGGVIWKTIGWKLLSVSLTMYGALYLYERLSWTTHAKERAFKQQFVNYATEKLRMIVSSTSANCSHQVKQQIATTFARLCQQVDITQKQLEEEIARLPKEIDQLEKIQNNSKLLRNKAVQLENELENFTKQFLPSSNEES
Assay: co-IP; HEK293T cells transfected with tagged constructs; mild lysis buffer (100 mM NaCl, 1% NP40, 10 mM Tris pH 7.5, 10 mM EDTA), antibody 2 h at 4 °C, protein G-Sepharose; western blotting

binding | Substance
no binding | FUNDC2 C-terminal region alone (domain or fragment)
no binding | FUNDC2 N-terminal region alone (domain or fragment)
no binding | FUNDC2 TM regions alone (domain or fragment)
